# Experimental data published in the supplement of paper PMC11006884.
# Chains of the proteins cited; added tags and fusions are not shown. Lines headed by an entry give the natural chain unless they say otherwise; changes in a name come on top.
# UniProt Q96EB1: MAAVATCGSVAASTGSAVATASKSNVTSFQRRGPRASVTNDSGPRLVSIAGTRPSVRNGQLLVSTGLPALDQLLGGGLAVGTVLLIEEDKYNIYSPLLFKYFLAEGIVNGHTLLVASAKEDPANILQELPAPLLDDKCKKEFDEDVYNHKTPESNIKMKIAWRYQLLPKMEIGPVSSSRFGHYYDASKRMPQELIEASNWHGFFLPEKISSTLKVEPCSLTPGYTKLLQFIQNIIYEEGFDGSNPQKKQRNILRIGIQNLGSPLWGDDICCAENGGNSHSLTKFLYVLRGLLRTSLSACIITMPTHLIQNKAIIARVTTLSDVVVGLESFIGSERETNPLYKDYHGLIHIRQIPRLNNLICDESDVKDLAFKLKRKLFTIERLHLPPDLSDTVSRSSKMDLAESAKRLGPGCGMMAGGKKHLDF
# UniProt Q92576, whole entry, looked up: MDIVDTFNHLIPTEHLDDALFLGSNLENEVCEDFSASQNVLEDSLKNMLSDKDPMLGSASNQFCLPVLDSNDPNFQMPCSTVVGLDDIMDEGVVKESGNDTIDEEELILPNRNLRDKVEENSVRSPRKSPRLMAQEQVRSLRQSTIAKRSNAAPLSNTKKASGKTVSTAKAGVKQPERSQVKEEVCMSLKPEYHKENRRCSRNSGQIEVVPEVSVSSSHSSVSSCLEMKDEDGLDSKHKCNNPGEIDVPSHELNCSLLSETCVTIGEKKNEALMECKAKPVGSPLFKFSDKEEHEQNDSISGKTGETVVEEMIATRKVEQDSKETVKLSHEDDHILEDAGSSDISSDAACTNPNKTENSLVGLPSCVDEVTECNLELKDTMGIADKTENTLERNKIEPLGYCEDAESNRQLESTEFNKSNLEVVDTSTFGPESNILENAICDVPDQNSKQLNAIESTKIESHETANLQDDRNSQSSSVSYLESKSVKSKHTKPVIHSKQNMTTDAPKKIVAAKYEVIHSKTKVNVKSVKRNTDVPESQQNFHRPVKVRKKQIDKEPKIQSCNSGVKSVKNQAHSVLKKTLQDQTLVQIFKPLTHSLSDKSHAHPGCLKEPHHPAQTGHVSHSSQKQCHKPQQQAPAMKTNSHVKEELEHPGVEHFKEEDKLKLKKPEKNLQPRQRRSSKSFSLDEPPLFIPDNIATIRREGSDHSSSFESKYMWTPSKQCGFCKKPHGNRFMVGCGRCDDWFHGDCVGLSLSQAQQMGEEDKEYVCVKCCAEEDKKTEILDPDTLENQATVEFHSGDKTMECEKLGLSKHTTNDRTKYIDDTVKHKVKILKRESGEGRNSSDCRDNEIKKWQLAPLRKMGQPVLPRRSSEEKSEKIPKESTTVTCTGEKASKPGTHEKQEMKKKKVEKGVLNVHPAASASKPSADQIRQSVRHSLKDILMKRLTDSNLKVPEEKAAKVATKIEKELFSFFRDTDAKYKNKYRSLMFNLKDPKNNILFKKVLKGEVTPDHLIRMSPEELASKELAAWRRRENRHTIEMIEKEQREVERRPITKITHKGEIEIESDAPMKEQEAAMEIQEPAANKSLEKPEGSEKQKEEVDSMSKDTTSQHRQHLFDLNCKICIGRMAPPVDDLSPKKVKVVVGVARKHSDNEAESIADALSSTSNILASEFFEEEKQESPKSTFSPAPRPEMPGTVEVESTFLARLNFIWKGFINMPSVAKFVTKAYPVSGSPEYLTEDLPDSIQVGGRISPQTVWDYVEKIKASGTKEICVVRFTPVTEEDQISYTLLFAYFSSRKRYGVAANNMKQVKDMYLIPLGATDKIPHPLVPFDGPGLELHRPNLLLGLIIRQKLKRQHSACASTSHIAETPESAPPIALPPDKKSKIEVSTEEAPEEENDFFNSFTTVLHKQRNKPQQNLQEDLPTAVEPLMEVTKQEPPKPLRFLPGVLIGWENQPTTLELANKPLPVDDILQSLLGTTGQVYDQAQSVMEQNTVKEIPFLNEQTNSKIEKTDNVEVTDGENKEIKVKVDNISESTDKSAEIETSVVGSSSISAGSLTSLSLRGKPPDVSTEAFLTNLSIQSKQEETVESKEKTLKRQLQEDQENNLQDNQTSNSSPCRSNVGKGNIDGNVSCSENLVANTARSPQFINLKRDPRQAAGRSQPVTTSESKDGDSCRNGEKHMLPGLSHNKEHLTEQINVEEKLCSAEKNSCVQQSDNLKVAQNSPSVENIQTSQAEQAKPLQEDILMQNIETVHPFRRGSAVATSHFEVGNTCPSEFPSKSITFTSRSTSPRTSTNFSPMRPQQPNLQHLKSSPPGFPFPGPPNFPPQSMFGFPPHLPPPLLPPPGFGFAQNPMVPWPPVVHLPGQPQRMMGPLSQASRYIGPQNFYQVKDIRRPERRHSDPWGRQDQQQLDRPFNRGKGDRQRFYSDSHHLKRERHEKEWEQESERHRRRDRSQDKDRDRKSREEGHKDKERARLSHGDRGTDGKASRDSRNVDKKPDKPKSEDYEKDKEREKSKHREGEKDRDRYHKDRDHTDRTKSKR
# UniProt Q96GQ7: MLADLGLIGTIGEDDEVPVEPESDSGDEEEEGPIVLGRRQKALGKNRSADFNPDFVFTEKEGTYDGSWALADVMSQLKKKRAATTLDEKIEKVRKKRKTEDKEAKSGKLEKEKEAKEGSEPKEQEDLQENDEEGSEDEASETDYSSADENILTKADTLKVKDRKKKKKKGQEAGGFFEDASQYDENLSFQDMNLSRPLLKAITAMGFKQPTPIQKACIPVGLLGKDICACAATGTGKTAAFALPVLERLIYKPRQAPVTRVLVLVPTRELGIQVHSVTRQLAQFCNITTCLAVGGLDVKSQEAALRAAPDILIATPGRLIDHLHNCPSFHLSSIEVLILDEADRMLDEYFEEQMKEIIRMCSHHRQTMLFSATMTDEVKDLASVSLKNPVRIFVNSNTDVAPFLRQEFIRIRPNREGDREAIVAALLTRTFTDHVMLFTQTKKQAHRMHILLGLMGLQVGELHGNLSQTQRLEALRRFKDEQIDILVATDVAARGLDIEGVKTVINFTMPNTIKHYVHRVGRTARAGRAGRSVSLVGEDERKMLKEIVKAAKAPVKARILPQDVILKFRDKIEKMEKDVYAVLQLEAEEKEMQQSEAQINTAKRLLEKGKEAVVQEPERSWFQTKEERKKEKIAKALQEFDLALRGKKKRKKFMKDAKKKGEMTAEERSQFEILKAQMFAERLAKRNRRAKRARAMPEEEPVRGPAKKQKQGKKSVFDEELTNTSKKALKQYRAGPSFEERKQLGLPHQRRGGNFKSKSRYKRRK
# UniProt Q96AG4: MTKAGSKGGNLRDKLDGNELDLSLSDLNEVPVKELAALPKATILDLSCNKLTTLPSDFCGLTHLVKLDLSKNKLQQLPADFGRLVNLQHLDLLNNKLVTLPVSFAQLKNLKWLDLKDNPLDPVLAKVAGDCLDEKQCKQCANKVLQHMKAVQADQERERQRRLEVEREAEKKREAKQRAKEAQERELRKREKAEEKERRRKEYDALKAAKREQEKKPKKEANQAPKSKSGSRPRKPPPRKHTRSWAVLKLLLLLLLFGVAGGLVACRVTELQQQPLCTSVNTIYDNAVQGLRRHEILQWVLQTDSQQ
# UniProt Q96HE7: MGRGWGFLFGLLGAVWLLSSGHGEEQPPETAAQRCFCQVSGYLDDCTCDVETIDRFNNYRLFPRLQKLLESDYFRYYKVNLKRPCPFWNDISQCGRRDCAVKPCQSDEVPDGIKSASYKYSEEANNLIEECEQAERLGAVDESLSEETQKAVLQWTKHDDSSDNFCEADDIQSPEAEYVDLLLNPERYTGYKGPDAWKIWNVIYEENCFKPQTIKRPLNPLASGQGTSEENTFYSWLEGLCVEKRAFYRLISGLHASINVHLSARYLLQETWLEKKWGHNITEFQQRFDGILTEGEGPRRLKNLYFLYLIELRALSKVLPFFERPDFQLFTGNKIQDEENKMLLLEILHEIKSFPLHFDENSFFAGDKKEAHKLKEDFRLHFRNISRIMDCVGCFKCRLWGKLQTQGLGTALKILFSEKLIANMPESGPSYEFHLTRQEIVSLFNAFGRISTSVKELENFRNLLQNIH
# UniProt Q93008, whole entry, looked up: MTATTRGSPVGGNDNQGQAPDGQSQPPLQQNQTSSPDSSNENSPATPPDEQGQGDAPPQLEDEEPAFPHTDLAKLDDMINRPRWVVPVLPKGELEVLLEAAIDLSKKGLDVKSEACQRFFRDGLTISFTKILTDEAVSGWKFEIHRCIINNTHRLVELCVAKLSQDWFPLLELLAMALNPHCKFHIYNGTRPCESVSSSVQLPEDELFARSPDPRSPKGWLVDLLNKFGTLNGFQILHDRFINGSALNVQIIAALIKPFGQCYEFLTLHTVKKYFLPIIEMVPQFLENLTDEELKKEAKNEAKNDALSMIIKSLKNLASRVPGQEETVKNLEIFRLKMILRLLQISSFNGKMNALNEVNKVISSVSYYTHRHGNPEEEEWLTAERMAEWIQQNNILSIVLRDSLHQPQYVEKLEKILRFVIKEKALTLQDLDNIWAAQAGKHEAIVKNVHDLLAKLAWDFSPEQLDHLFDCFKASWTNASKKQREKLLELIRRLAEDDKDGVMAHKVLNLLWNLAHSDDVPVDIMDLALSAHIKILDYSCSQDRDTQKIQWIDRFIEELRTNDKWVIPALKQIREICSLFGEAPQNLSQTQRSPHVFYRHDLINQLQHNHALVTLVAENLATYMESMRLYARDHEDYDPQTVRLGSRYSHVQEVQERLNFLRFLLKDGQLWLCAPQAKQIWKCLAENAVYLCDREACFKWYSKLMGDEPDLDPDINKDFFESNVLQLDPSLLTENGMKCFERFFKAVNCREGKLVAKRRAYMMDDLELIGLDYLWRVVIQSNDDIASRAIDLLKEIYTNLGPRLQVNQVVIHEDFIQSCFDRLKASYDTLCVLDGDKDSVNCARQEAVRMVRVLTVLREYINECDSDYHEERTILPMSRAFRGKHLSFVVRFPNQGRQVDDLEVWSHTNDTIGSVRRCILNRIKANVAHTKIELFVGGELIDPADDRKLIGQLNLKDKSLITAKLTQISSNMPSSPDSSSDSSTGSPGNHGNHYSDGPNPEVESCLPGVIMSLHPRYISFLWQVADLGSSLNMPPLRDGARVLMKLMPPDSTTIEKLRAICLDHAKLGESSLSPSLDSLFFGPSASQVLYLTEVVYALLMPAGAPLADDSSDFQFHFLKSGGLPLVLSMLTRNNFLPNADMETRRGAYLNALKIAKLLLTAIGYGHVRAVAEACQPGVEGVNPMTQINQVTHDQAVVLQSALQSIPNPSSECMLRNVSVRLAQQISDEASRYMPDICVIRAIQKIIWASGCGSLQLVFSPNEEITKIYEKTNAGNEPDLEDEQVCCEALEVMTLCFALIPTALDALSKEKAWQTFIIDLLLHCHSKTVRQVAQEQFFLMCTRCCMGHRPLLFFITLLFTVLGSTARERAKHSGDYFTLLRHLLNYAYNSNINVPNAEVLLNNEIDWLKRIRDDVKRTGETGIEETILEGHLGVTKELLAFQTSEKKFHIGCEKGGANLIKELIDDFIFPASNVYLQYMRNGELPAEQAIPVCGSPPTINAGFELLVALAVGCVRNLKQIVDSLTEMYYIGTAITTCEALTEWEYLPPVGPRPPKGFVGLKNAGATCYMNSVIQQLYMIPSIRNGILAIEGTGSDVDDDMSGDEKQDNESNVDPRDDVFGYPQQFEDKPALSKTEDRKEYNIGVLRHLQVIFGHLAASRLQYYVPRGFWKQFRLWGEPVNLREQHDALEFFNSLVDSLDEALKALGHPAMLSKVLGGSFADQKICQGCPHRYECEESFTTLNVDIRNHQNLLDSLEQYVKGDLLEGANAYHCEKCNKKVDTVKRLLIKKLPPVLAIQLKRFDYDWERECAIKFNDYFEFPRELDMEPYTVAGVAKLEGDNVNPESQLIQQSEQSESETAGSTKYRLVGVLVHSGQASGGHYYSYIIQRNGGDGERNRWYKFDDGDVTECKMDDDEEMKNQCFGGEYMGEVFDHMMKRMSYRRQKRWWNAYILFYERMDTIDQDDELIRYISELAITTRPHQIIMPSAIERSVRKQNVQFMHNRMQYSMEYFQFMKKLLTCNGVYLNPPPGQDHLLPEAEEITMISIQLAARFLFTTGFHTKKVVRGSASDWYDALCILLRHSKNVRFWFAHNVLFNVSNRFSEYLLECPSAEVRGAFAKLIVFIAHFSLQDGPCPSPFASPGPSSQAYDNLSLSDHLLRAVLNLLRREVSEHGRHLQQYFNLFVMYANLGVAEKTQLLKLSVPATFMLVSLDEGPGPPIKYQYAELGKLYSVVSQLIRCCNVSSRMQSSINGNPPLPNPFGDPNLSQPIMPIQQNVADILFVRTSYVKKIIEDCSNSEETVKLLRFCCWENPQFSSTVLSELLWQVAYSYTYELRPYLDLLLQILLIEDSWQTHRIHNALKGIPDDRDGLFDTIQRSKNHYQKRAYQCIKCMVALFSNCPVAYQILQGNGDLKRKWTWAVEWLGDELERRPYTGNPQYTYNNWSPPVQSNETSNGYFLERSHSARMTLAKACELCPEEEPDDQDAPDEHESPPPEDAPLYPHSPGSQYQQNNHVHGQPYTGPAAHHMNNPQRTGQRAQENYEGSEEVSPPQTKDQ
# This is a selection; strong and weak results do not stand in their true shares.
# Compound: COC(=O)C#Cc1ccccc1 [methyl 3-phenylpropiolate]
# Assay: log2 ratio of iodoacetamide-alkyne labeling of the cysteine site, DMSO over compound (competition); higher = stronger covalent engagement of the cysteine by the compound, active = 1 or more
# Settings: 500 µM; treatment time 1 h; system: HEK293T cell lysate
# How it was run: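 For each cysteine, the log2 competition ratio is mean control-channel reporter intensity over mean compound-channel reporter intensity. HEK293T lysate (2 mg/mL) was exposed to vehicle or electrophile (500 µM, 1 h, ambient temperature), labelled with iodoacetamide alkyne (1 h), clicked to sCIP-TMT reagents, digested overnight with trypsin at 37 °C, streptavidin-enriched and analysed by Orbitrap Eclipse LC-MS/MS with FAIMS and FragPipe. Cysteines quantified in only one of three replicates, each with duplicate channels, were excluded.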
row,Target,log2 ratio of iodoacetamide-alkyne labeling
1,ELP4 C361 (UniProt Q96EB1),inactive: 0.228
2,PHF3 C1616 (UniProt Q92576),active: 1.14
3,DDX27 C259 (UniProt Q96GQ7),inactive: 0.192
4,PDLIM5 C446 (UniProt Q96HC4),inactive: 0.0755
5,DTNBP1 C302 (UniProt Q96EV8),inactive: 0.108
6,UniProt Q92616_C1535,inactive: 0.307
7,LRRC59 C131 (UniProt Q96AG4),inactive: 0.152
8,UniProt Q96G28_C138,inactive: 0.0764
9,THOC1 C396 (UniProt Q96FV9),inactive: 0.492
10,GCDH C176 (UniProt Q92947),inactive: 0.229
11,UniProt Q96HE7_C241,inactive: 0.0793
12,MRRF C154 (UniProt Q96E11),inactive: 0.108
13,ZC3HAV1L C7 (UniProt Q96H79),inactive: 0.269
14,ARHGEF2 C715 (UniProt Q92974),inactive: 0.339
15,PSMG2 C168 (UniProt Q969U7),inactive: 0.126
16,RPL36AL C15 (UniProt Q969Q0),inactive: -0.000384
17,UniProt Q92615_C590,inactive: 0.305
18,SLC7A6OS C166 (UniProt Q96CW6),inactive: 0.807
19,NRBF2 C155 (UniProt Q96F24),inactive: 0.664
20,TUBGCP3 C497 (UniProt Q96CW5),inactive: 0.282
21,UniProt Q92841_C247,inactive: 0.0183
22,USP9X C864 (UniProt Q93008),inactive: 0.12

# Part of the list above, as tab-separated lines.
row	Target	log2 ratio of iodoacetamide-alkyne labeling
21	UniProt Q92841_C247	inactive: 0.0183
22	USP9X C864 (UniProt Q93008)	inactive: 0.12
